Publication PMC10985095
These are yes or no findings as the source states them, for the method shown. In cells and extracts the contact can be indirect. Some entries that bind do so weakly or less than the wild type.

The chains behind the UniProt entries cited, without tags or fusion partners. Where a name states a change or a piece, a line headed by the entry shows the natural chain unless it says otherwise. A line that says so, or that is headed by a name, gives the form on record, which may keep a tag or linker.
UniProt Q96EB6: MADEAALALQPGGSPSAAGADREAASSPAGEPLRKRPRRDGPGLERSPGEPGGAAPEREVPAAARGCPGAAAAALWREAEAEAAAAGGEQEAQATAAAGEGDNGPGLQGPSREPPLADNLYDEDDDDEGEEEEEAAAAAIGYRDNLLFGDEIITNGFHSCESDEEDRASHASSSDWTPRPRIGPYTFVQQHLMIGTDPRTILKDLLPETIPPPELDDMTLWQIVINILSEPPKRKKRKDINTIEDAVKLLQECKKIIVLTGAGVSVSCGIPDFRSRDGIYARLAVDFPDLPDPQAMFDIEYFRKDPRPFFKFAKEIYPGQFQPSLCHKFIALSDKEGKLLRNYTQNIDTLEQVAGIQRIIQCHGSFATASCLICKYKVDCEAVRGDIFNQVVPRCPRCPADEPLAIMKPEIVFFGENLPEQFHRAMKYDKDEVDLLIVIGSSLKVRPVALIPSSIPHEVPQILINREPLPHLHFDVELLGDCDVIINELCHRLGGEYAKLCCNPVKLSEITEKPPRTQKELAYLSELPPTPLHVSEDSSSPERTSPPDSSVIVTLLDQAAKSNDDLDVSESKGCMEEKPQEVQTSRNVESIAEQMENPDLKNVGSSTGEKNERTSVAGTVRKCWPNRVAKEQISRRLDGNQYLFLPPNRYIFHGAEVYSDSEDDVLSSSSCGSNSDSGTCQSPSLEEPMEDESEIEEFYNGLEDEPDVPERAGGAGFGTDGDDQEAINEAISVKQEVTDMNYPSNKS
SIRT1 KR (construct of the AROS co-immunoprecipitation) (Q96EB6, form named): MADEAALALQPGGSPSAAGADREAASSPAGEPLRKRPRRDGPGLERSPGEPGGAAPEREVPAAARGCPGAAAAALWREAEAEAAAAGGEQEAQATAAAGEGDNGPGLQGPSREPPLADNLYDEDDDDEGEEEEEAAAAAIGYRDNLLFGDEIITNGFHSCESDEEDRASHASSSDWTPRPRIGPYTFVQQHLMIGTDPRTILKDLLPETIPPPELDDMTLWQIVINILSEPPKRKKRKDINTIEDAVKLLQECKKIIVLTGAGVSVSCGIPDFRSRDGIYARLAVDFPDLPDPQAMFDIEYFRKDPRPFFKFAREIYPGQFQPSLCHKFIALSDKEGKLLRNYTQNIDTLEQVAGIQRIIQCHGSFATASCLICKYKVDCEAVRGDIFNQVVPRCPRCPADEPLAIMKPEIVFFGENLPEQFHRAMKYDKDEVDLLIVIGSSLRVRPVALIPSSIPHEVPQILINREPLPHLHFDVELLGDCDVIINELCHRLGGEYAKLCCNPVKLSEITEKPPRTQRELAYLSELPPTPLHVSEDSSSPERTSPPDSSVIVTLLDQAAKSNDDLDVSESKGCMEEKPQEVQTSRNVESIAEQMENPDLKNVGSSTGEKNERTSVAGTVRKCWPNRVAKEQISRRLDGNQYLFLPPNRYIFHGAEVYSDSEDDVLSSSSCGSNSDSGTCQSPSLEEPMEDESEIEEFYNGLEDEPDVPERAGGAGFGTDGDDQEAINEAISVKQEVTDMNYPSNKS

Legend:
Experiment in all cases: co-IP; HEK293T coexpressing AROS and SIRT1 WT or SIRT1 KR, in the absence or presence of the ISG15-conjugating system; reciprocal IP with antibodies against V5 or Xpress
[1] = biological target: ISGylated SIRT1 WT (construct of the AROS co-immunoprecipitation, coexpressed with the ISG15-conjugating system) (UniProt Q96EB6)
[2] = biological target: SIRT1 WT (construct of the AROS co-immunoprecipitation) (human) (UniProt Q96EB6)
[3] = biological target: SIRT1 KR (construct of the AROS co-immunoprecipitation) (human) (UniProt Q96EB6)

Measured: binding

B1: Active regulator of SIRT1 (AROS) (protein, UniProt Q86WX3 1-136)
chain: MSAALLRRGLELLAASEAPRDPPGQAKPRGAPVKRPRKTKAIQAQKLRNSAKGKVPKSALDEYRKRECRDHLRVNLKFLTRTRSTVAESVSQQILRQNRGRKACDRPVAKTKKKKAEGTVFTEEDFQKFQQEYFGS
binds: all assays above
